Data as given in PubChem BioAssay AID504764 (Drosophila RNAi Screening Center, 2011)
Aim: 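Genome-wide screen for regulators of Notch-driven gene expression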 (primary screen). Cells: Drosophila Kc167 cells. Reagents: long dsRNA against Drosophila genes. Duration: about 5 days (4 days dsRNA, then 24 h after transfection). Treatment: transfection of constitutively active membrane-tethered Notch lacking the extracellular domain, read 24 h later. Measured: 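Firefly luciferase from an E(spl)m3 reporter with active Notch, plus control-promoter and uninduced reporter wells for normalisation; unnormalised counts, duplicate wells a and b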. Scale: induced reporter light, run 1, well a and induced reporter light, run 1, well b: higher = more light from the Notch target reporter with active Notch; control promoter light, run 1, well a and control promoter light, run 1, well b: higher = more light from the viral control promoter (cell number, transfection, viability); uninduced reporter light, run 1, well a: higher = more light from the Notch target reporter without active Notch. Rule for the call: 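Wells with low control signal or poorly matching duplicates excluded; duplicates averaged; per source plate, z beyond ±2 for induced/control log2 ratio or beyond ±1.8 for induced/uninduced marks a hit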. Meaning of the calls: active = modifier hit (raised or lowered Notch signal); inactive = not a hit.
In all, the deposit lists about 22,000 reagents; below is a random part of those with a known target gene and a result. Of all reagents, 403 (1.9%) got an active call. 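Unnormalised raw counts per well; ratio z-scores behind the hit calls and whether each hit raises or lowers signal are not deposited.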 Not stated in the record: the amount of reagent.

CG15209 [SID104199447]
- induced reporter light, run 1, well a: 1.41e5
- induced reporter light, run 1, well b: 1.22e5
- control promoter light, run 1, well a: 1.64e5
- control promoter light, run 1, well b: 1.57e5
- uninduced reporter light, run 1, well a: 9035
- outcome: inactive

CG13403 [SID104199327]
- induced reporter light, run 1, well a: 57295
- induced reporter light, run 1, well b: 52120
- control promoter light, run 1, well a: 84325
- control promoter light, run 1, well b: 58770
- uninduced reporter light, run 1, well a: 8525
- outcome: inactive

CG8925 [SID104196247]
- induced reporter light, run 1, well a: 1.96e5
- induced reporter light, run 1, well b: 2.11e5
- control promoter light, run 1, well a: 1.69e5
- control promoter light, run 1, well b: 2.01e5
- uninduced reporter light, run 1, well a: 15860
- outcome: inactive

CG8925 [SID104196248]
- induced reporter light, run 1, well a: 1.55e5
- induced reporter light, run 1, well b: 1.75e5
- control promoter light, run 1, well a: 1.44e5
- control promoter light, run 1, well b: 1.26e5
- uninduced reporter light, run 1, well a: 13280
- outcome: inactive

CG8925 [SID104196249]
- induced reporter light, run 1, well a: 1.70e5
- induced reporter light, run 1, well b: 1.87e5
- control promoter light, run 1, well a: 1.67e5
- control promoter light, run 1, well b: 1.95e5
- uninduced reporter light, run 1, well a: 15955
- outcome: inactive

mEFTs [SID104182745]
- induced reporter light, run 1, well a: 2.42e5
- induced reporter light, run 1, well b: 2.24e5
- control promoter light, run 1, well a: 2.34e5
- control promoter light, run 1, well b: 2.59e5
- uninduced reporter light, run 1, well a: 16000
- outcome: inactive

Laid out differently: results already given
| predicted target | PubChem SID | induced reporter light, run 1, well a | induced reporter light, run 1, well b | control promoter light, run 1, well a | control promoter light, run 1, well b | uninduced reporter light, run 1, well a | outcome |
| --- | --- | --- | --- | --- | --- | --- | --- |
| CG13403 | SID104199327 | 57295 | 52120 | 84325 | 58770 | 8525 | inactive |
| CG8925 | SID104196247 | 1.96e5 | 2.11e5 | 1.69e5 | 2.01e5 | 15860 | inactive |

Further reagents follow:
CG9263 [SID104182968]
- induced reporter light, run 1, well a: 1.38e5
- induced reporter light, run 1, well b: 1.61e5
- control promoter light, run 1, well a: 1.57e5
- control promoter light, run 1, well b: 1.75e5
- uninduced reporter light, run 1, well a: 13655
- outcome: inactive

Apc [SID104193906]
- induced reporter light, run 1, well a: 1.12e5
- induced reporter light, run 1, well b: 1.08e5
- control promoter light, run 1, well a: 1.74e5
- control promoter light, run 1, well b: 1.50e5
- uninduced reporter light, run 1, well a: 12360
- outcome: inactive

Su(var)205 [SID104183238]
- induced reporter light, run 1, well a: 1.99e5
- induced reporter light, run 1, well b: 1.92e5
- control promoter light, run 1, well a: 1.52e5
- control promoter light, run 1, well b: 1.75e5
- uninduced reporter light, run 1, well a: 17145
- outcome: inactive

rl [SID104187625]
- induced reporter light, run 1, well a: 1.10e5
- induced reporter light, run 1, well b: 1.20e5
- control promoter light, run 1, well a: 1.46e5
- control promoter light, run 1, well b: 1.53e5
- uninduced reporter light, run 1, well a: 8185
- outcome: inactive

rl [SID104200534]
- induced reporter light, run 1, well a: 84655
- induced reporter light, run 1, well b: 90575
- control promoter light, run 1, well a: 71365
- control promoter light, run 1, well b: 65810
- uninduced reporter light, run 1, well a: 8932
- outcome: inactive

rl [SID104201468]
- outcome: inactive

scpr-B [SID104194992]
- induced reporter light, run 1, well a: 1.34e5
- induced reporter light, run 1, well b: 1.24e5
- control promoter light, run 1, well a: 89925
- control promoter light, run 1, well b: 85510
- uninduced reporter light, run 1, well a: 9445
- outcome: inactive

fau [SID104192608]
- induced reporter light, run 1, well a: 1.46e5
- induced reporter light, run 1, well b: 1.45e5
- control promoter light, run 1, well a: 1.59e5
- control promoter light, run 1, well b: 1.34e5
- uninduced reporter light, run 1, well a: 13715
- outcome: inactive

fau [SID104192609]
- induced reporter light, run 1, well a: 1.19e5
- induced reporter light, run 1, well b: 1.12e5
- control promoter light, run 1, well a: 1.43e5
- control promoter light, run 1, well b: 1.27e5
- uninduced reporter light, run 1, well a: 10435
- outcome: inactive

fau [SID104196735]
- induced reporter light, run 1, well a: 1.53e5
- induced reporter light, run 1, well b: 1.41e5
- control promoter light, run 1, well a: 95450
- control promoter light, run 1, well b: 94770
- uninduced reporter light, run 1, well a: 10910
- outcome: inactive

fau [SID104196736]
- induced reporter light, run 1, well a: 1.18e5
- induced reporter light, run 1, well b: 1.31e5
- control promoter light, run 1, well a: 1.37e5
- control promoter light, run 1, well b: 1.09e5
- uninduced reporter light, run 1, well a: 7980
- outcome: inactive

fau [SID104196737]
- induced reporter light, run 1, well a: 64025
- induced reporter light, run 1, well b: 70310
- control promoter light, run 1, well a: 63255
- control promoter light, run 1, well b: 56210
- uninduced reporter light, run 1, well a: 6055
- outcome: inactive
